No constants are given. Whether binding was seen depends on the method and setting. Binding seen in cells or lysates may run through a third protein. Some entries that bind do so weakly or less than the wild type. For some of these results: Sequences can lack the tags named with a protein.
Tests used:
[1] = molecular target: TASK1-YFP (human) (UniProt O14649); assay: FRET or BRET; acceptor photobleaching FRET (CFP donor, YFP acceptor) in HEK293 cells, confocal microscope; cDNA ratio CFP:YFP 1:1; E_FRET = percent increase in CFP emission after YFP photobleaching
[2] = molecular target: T1, GFP-TALK2 (human) (UniProt Q96T54); assay: co-IP; HEK293 lysates (IP Lysis/Wash Buffer, 1% NP-40, 0.15 M NaCl, pH 7.4) precipitated with anti-GFP antibody on resin, overnight at 4°C; blotted with anti-TASK1 antibody
T1 sequence: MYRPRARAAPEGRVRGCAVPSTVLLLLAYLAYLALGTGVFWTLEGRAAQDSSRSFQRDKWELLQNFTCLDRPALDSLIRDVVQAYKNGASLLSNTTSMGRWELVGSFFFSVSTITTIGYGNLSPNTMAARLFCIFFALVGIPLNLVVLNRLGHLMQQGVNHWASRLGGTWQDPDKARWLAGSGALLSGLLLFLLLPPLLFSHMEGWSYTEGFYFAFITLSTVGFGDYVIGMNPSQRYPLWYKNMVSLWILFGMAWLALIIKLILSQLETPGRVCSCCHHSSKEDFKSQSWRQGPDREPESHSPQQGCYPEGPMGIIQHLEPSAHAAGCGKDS

Amino acid sequences for entries named in this document (tags omitted).
UniProt O14649: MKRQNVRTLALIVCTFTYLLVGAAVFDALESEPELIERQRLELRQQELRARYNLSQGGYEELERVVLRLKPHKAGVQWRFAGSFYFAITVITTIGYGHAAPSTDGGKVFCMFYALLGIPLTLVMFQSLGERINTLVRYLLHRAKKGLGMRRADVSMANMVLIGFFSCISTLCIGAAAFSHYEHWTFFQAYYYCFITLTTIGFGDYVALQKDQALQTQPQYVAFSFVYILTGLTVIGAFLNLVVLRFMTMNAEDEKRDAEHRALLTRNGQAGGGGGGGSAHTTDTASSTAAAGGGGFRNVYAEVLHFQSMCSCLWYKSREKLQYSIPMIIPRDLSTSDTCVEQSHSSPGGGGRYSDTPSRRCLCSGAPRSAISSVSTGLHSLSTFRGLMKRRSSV
UniProt Q9H427: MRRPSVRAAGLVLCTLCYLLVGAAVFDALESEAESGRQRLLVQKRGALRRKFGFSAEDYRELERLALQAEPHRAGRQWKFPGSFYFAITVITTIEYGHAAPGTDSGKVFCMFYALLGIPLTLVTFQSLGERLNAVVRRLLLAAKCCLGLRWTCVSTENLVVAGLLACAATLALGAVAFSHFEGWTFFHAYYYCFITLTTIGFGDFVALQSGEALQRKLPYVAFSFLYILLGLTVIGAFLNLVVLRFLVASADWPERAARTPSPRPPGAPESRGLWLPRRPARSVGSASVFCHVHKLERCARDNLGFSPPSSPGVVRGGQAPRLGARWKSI

[3] = molecular target: T2, VN-TALK2 (human) (UniProt Q96T54); assay: split reporter; BiFC in living HEK293 cells co-expressing channels fused to VN173 and VC155 of Venus; Venus fluorescence imaged
T2 sequence: T1 sequence

[4] = molecular target: T3, TALK2-VC (human) (UniProt Q96T54); assay: as above
T3 sequence: T1 sequence

CFP-TASK5 (from UniProt Q9H427 1-330)
binding [1]: no binding

TASK1 (without any tag) (from UniProt O14649 1-394)
binding [2]: binds

TASK1-VC (from UniProt O14649 1-394)
binding [3]: binds

VN-TASK1 (from UniProt O14649 1-394)
binding [4]: binds

Source: paper PMC5634629
